According to PubChem BioAssay AID493014 (National Center for Advancing Translational Sciences (NCATS), 2011):
Among all 340,000 compounds or so, about 170 (0.05%) were called active. The inconclusive results got no clear call from the source; some entries with a clear call stand among them for comparison. Calls follow the shape of the dose curve; as a rule, active = well fitted inhibition curve with a large enough effect in the signal ratio, with a control signal flat (not every such curve was filed as active); inconclusive = small, poorly fitted or top-dose-only effect, or effect the other way, or a change in a side signal; inactive = flat fitted curve, though single readings scatter; the % refers to the signal ratio. Where the call is inconclusive, the potency comes from a doubtful curve fit.

Experiment: qHTS Assay to Find Inhibitors of Chronic Active B-Cell Receptor Signaling;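 as to activity change, negative = inhibition: plate controls were basal doxycycline-induced cells for no effect and cells given 10 µM MG132 for full effect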
Conditions: ABC-DLBCL IkBa-CBG/CBR reporter, luminescence ratio (green luciferase fused to IkBa over red control in TMD8 lymphoma cells), 4 h; activity change, negative = inhibition: at 46.1 µM (top of the series) unless noted
Procedure, shortened: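 TMD8 ABC-DLBCL cells carrying doxycycline-inducible green luciferase fused to IkappaBalpha plus unfused red luciferase were exposed to compounds (up to 46 uM) for 4 hrs at 37C. Activity came from the overlap-corrected green/red luminescence ratio.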
Potency is read from the fitted curve at half-maximal effect.

| Compound | activity change, negative = inhibition | Potency |
| --- | --- | --- |
| Cc1ccc(-n2nnnc2SCc2ccccn2)cc1C | inconclusive: 16.1% | – |
| CCOC(=O)c1cccc(OCC(O)CNCCOc2ccccc2F)c1 (centres undefined) | inactive: -0.804% | – |
| Cc1nc(NC2=NCN(CCc3ccccc3)CN2)nc2ccccc12 | inconclusive: -12.3% | – |
| COc1ccc(OCC(=O)N/N=C2\CCCc3ccccc32)cc1 | inactive: -22.1% | – |
| Nc1nnc(SCC(=O)Nc2cc(C(F)(F)F)ccc2N2CCOCC2)s1 | inconclusive: -2.87% | – |
| CCCn1c(SCC(=O)c2ccc3c(c2)OCCO3)nnc1C(C)C | inconclusive: -12.1% | – |
| O=C(/C=C/Nc1ccc([N+](=O)[O-])cc1)c1ccc(Br)cc1 | inconclusive: 2.32% | – |
| Clc1ccc(SCCCCN2CCNCC2)cc1 | inconclusive: -5.97% | – |
| Cc1cc(C(=O)Cn2cnc3ccccc3c2=O)c(C)n1C1CC1 | inactive: -4% | – |
| Cc1cc(-c2ccccc2)c(C#N)c(=S)[nH]1 | inconclusive: 6.83% | – |
| CC(C)(C)OC(=O)NN1CC(=O)N2Cc3[nH]c4ccccc4c3C[C@H]2C1=O | inactive: -2.8% | – |
| COc1ccccc1CNC(=O)c1n[nH]c2ccccc12 | – | inconclusive: 22.4 µM [falling, partial curve] |
| Oc1ccc(C=NC2CCCCC2)cc1 | inactive: -9.29% | – |
| O=C(CN1C(=O)S/C(=C/c2cccn2-c2ccc(O)cc2)C1=O)N1CCCC1 | inconclusive: 12.6% | – |
| COC(=O)C1C(c2ccccc2)C(C(=O)O)C1c1ccccc1 (centres undefined) | inconclusive: 5.14% | – |
| Cc1ccc(NC(=O)Cn2nnc3ccccc3c2=O)cc1 | – | inconclusive: 35.5 µM [rising, partial curve, poor fit] |
| CN(C)C(=O)CSc1nnc([C@H](Cc2c[nH]c3ccccc23)NC(=O)OC(C)(C)C)o1 | inconclusive: 1.65% | – |
| Nc1ccc(C(=O)Nc2ccccc2N)cc1 | – | inconclusive: 12.6 µM [falling, partial curve, poor fit] |
| CCCCCC(=O)NC(=S)Nc1cccc(-c2nc3ncccc3o2)c1 | inconclusive: 9.4% | – |
| CN(Cc1ccccc1)c1nc2c(c(=O)[nH]c(=O)n2C)n1Cc1ccccc1 | – | inconclusive: 0.631 µM [falling, partial curve, poor fit] |
| COc1ccc(-c2nc(-c3ccccc3)c(-c3cc([N+](=O)[O-])ccc3C)[nH]2)cc1OC | inconclusive: -1.38% | – |

| Compound | activity change, negative = inhibition | Potency |
| --- | --- | --- |
| O=C(OCCOc1ccc(Br)cc1)c1cnccn1 | inconclusive: -1.54% | – |
| O=C(Nc1nnc(Cc2ccccc2)s1)c1ccco1 | – | inconclusive: 6.51 µM [rising, partial curve, poor fit] |
| COc1cccc(NC(=O)CN(C)C(=O)CNC(=O)c2ccc(Oc3ccccc3)cc2)c1 | – | inconclusive: 29.1 µM [falling, single point] |
| C=C(C)C1CC=C(C)/C(=N/NC(=O)c2ccc(NC(=O)CCC)cc2)C1 (centres undefined) | inactive: 1.01% | – |
| CSc1nc2c(C)c(C)c(C)c(C)c2[nH]1 | inconclusive: -6.8% | – |
| CCOC(=O)c1ccc2c(c1)N(Cc1ccc(F)cc1Cl)C(=O)c1ccccc1S2 | inactive: -5.1% | – |
| N=c1ccn(Cc2ccc(Cl)c(Cl)c2)cc1 | inactive: 0.552% | – |
| COc1cc(C(=O)OCCc2cc3ccccc3c(=O)o2)cc(OC)c1OC | inactive: -21% | – |
| COc1cccc(-c2c(C(=O)N/N=C/c3cccs3)nnn2-c2nonc2N)c1 | inconclusive: -3.95% | – |
| Clc1ccc(C2=NN=C3COc4ccccc4N3C2)cc1 | inconclusive: -20.4% | – |
| Cc1cnc(=O)[nH]c1SCC(=O)Nc1cc(C(F)(F)F)ccc1Cl | inconclusive: 57.2% | – |
| CN1CCN(c2nc(Nc3cccc(C(F)(F)F)c3)nc(N3CCOCC3)n2)CC1 | – | inconclusive: 32.6 µM [falling, partial curve, poor fit] |
| C/C(=N\NC(=S)NCc1ccccc1)c1ccc(C(C)(C)C)cc1 | inconclusive: -0.267% | – |
| O=C(NC(Cc1c[nH]c2ccccc12)C(=O)Nc1ccc(F)c([N+](=O)[O-])c1)c1cccs1 (centres undefined) | – | inconclusive: 20.6 µM [falling, partial curve] |
| CCN(CC)C(=O)c1ccc2c(c1)nnn2C | inconclusive: 0.479% | – |
| COc1cc2cc(C(=O)N3CCc4ccccc4C3)[nH]c2cc1OC | inconclusive: 12.5% | – |
| Cc1ccc(NC(=O)CSc2nnc(CNC(=O)c3cccs3)o2)cc1 | inconclusive: -2.65% | – |
| OCCC1CN(Cc2nc3c(s2)CCCC3)CCN1CCc1ccccc1 (centres undefined) | inconclusive: 1.8% | – |
| Cc1ccc(OCC(=O)N2CCc3ccccc3C2)c(Br)c1 | inconclusive: 10.1% | – |
| CC(=O)N1CCc2cc(S(=O)(=O)NC(CC(C)C)C(=O)Nc3cc(C)ccn3)ccc21 (centres undefined) | inconclusive: 1.14% | – |
| Cc1cc(SCC(=O)c2cccs2)nc2c(C)cccc12 | inconclusive: 5.72% | – |

| Compound | activity change, negative = inhibition | Potency |
| --- | --- | --- |
| Cc1ccc(N2C(=O)CS/C2=N\C(=S)Nc2ccccc2)cc1 | – | inconclusive: 5.62 µM [cytotoxic, single point] |
| COc1c(OC)c(O)c2c(=O)c(O)c(-c3ccccc3)oc2c1OC | inconclusive: 11.7% | – |
| Cc1cccc(C)c1OCc1cc(C(=O)NCC2CC2)no1 | inconclusive: 0.777% | – |
| COc1cc(C(=O)NCc2ccco2)c(Br)c(OC)c1OC | inconclusive: 1.34% | – |
| CCOC(=O)N1CCN(CC(O)c2c[nH]c3ccccc23)CC1 (centres undefined) | inconclusive: -24.8% | – |
| CN(C)c1ccc(NC(=O)c2cccc(N3C(=O)CCC3=O)c2)cc1 | – | inconclusive: 20 µM [falling, partial curve] |
| COc1cc(/C=C2\N=C(c3ccccc3)NNC2=O)cc(OC)c1OC | inconclusive: -29.9% | – |
| NNC(=O)c1sc(-c2ccccc2)cc1N | inconclusive: 26.6% | – |
| COCCNC(=O)COC(=O)/C=C/c1cnc2ccccc2n1 | inconclusive: -0.524% | – |
| COC(=O)c1cc(CSc2ncnc3sccc23)oc1C | inconclusive: -4.65% | – |
| Cc1ccc(COc2ccsc2-c2n[nH]c(=S)n2C)cc1 | inactive: -0.727% | – |
| FC(F)(F)c1ccc(-n2cnc3ccccc32)nc1 | inactive: 10.5% | – |
| COc1cccc([C@@H]2Oc3ccc(OC)cc3C(=O)[C@H]2O)c1 | inactive: 0.142% | – |
| COc1ccc(OC)c(Nc2nc(-c3sc(C)nc3C)cs2)c1 | – | inconclusive: 25.1 µM [falling, single point] |
| COC(=O)CN1C2(C#N)CCCCC2CC2CCCCC21C#N (centres undefined) | – | inconclusive: 3.26 µM [rising, single point] |
| O=C(Nc1ccc(Cl)cc1Cl)NC1CCCC1 | inconclusive: 0.631% | – |
| Cc1ccc(-c2csc3ncnc(-n4nnc5ccccc54)c23)cc1 | inconclusive: -9.3% | – |
| CN(C(N)=S)c1ccccc1 | inactive: -0.0111% | – |
| COc1ccc(/C=C/C(=O)c2ccncc2)c2ccccc12 | inconclusive: -6.52% | – |
| C=CCN(c1ccccc1)S(=O)(=O)c1ccc(Cl)c(C(=O)OCC(=O)NCCCN2CCCC2=O)c1 | inconclusive: -0.447% | – |
| COc1cc(/C=N/NC(=O)Cc2ccc(Br)cc2)cc(OC)c1O | – | inconclusive: 0.1 µM [falling, full curve, poor fit] |

| Compound | activity change, negative = inhibition | Potency |
| --- | --- | --- |
| O=C(CCc1ccccc1)NN1C(=O)C2C3C=CC(O3)C2C1=O (centres undefined) | inconclusive: -0.791% | – |
| Nc1cccc(C(=O)Nc2ccc3nc(-c4cccnc4)[nH]c3c2)c1 | inconclusive: 1.78% | – |
| O=C1N=C(N2CCOCC2)S/C1=C/c1ccc(-c2ccccc2Cl)o1 | inconclusive: 9.74% | – |
| COc1cc2c(cc1NC(=O)C(C)OC(=O)C1CC(=O)N(Cc3ccco3)C1)oc1ccccc12 (centres undefined) | – | inconclusive: 16.4 µM [rising, single point] |
| N#CC1=C(SCC(=O)NC2CCCCC2)NC(=O)CC1c1ccco1 (centres undefined) | – | inconclusive: 13 µM [falling, partial curve] |
| COc1ccc(CN2CCCC(C(=O)c3ccc(Cl)cc3)C2)cc1Cn1cccn1 (centres undefined) | – | inconclusive: 7.08 µM [falling, full curve, poor fit] |
| COc1cccc(-c2nnc(NC(=O)c3ccco3)s2)c1 | – | inconclusive: 35.5 µM [rising, partial curve] |
| O=C(NCCO)c1ccc2[nH]c3ccccc3c2c1 | – | inconclusive: 2 µM [rising, full curve] |
| Cn1c2ccccc2c2cc(C(=O)N3CCOCC3)sc21 | inconclusive: -1.87% | – |
| O=[N+]([O-])c1ccc(O)c(/C=N\N=C2c3ccccc3-c3ccccc32)c1 | – | inconclusive: 0.82 µM [rising, full curve, poor fit] |
| COc1ccc(C(=O)NC(C)C2CC3CCC2C3)cc1 (centres undefined) | inconclusive: 5.77% | – |
| CCn1c(CNC(=O)c2ccccc2Br)nnc1SCC(=O)Nc1nncs1 | inactive: -0.932% | – |
| Cc1ccc(NCCC(=O)c2ccc(Cl)cc2)cc1 | – | inconclusive: 1 µM [falling, full curve, poor fit] |
| N#Cc1ccc(S(=O)(=O)N2CCC(C(=O)Nc3cccc(C(=O)NC4CC4)c3)CC2)cc1 | inconclusive: 1.63% | – |
| O=C(NNC(=O)C1CCN(C(=O)Nc2ccccc2)CC1)c1ccc(F)cc1 | inactive: -3.53% | – |
| CNC(=O)c1ccccc1Sc1cccc2cccc(C(=O)O)c12 | inconclusive: 6.23% | – |
| O=C(c1ccco1)N1CCN=C1SCc1ccccc1F | – | inconclusive: 0.013 µM [rising, full curve, poor fit] |
| NC(=S)NC(=O)/C=C/c1ccccc1 | inconclusive: -27.1% | – |
| Cc1ccc(C(=O)N2CCN(c3ccc(NC(=S)NC(=O)Cc4ccccc4)cc3)CC2)cc1 | inactive: 2.8% | – |
| C/C=C/c1ccc(OCC(=O)OCC(=O)Nc2c(C)nn(-c3ccccc3)c2C)c(OC)c1 | inconclusive: 19.4% | – |
| C/C(Cn1nnc([N+](=O)[O-])n1)=N\NC(=O)c1ccc(O)cc1 | inconclusive: 205% | – |

Looked up by structure from above:

| Compound | activity change, negative = inhibition | Potency |
| --- | --- | --- |
| Cc1ccc(NCCC(=O)c2ccc(Cl)cc2)cc1 | – | inconclusive: 1 µM [falling, full curve, poor fit] |
| O=C(NCCO)c1ccc2[nH]c3ccccc3c2c1 | – | inconclusive: 2 µM [rising, full curve] |

Laid out differently: results already given
Compound	activity change, negative = inhibition	Potency
O=C(NCCO)c1ccc2[nH]c3ccccc3c2c1	–	inconclusive: 2 µM [rising, full curve]
O=C(c1ccco1)N1CCN=C1SCc1ccccc1F	–	inconclusive: 0.013 µM [rising, full curve, poor fit]
C/C=C/c1ccc(OCC(=O)OCC(=O)Nc2c(C)nn(-c3ccccc3)c2C)c(OC)c1	inconclusive: 19.4%	–
